Results taken from patent publication US12521393B2, “Cytotoxicity targeting chimeras for CCR2-expressing cells” (GLAXOSMITHKLINE INTELLECTUAL PROPERTY DEVELOPMENT LIMITED, priority 2021, dated 2026).
At least one compound was matched to its structure with a doubt left.

What was measured:
CCR2+ cells = experiment: Ex vivo T cell expansion following MDSC depletion (Example 205); assay type: cell-based
MC38 tumor = MC38 tumor bearing mice dosed with ARM compound and anti-cotinine antibody (Example 204): tumor volume, CD8 T cells, mMDSCs, survival; assay type: in vivo, Human CCR2 knock-in C57 mice; details: ARM compound+antibody as compared to ARM compound alone
MC38 tumors = experiment: CD4/CD8 T cell depletion study in MC38 tumor bearing mice (Example 209); assay type: in vivo, human CCR2 knock-in mice; details: hCCR2 knock-in mice, anti-CD8 and anti-CD4 pre-treatment vs isotype, IV pre-mixed every 6 days (FIGS. 2A, 2B)
[1] = test system: anti-cotinine antibody (SEQ ID NO: 9/10, humanized version); experiment: SPR binding of anti-cotinine antibody to ARM compounds, Biacore 8k, 25° C., humanized antibody (Example 202)
Text: (§1) Anti-cotinine antibodies having a heavy chain sequence of SEQ ID NO: 9 and a light chain sequence of SEQ ID NO: 10 (humanized version) or a heavy chain sequence of SEQ ID NO: 11 and a light chain sequence of SEQ ID NO: 12 (rabbit version) were captured via the Fc domain to a protein A or A/G surface on flow cell 2 of a CMS sensor chip using the Biacore 8k.
(§2) After antibody capture, a 1500 second wait step was included to reduce drift in the binding step. ARM compounds of Formula (I) were then flowed over the captured antibodies at varying top concentrations ranging from 250 nM to 4 μM (see Table 6 below for top concentration values). The top concentration was diluted 4-fold over 5 dilutions (with a 0 nM compound cycle included to blank subtract the data). Association and dissociation times of the ARMs compounds of Formula (I) varied between experiments as follows and indicated in Table 6 below: reference 1-association for 600 seconds and dissociation for 1200 seconds at 20 μl/min; reference 2-association for 240 seconds and dissociation for 300 seconds at 30 μl/min; reference 3-association for 360 seconds and dissociation for 600 seconds at 30 μl/min. Anti-cotinine antibody bound to the protein A or A/G surface was regenerated using 50 mM NaOH. Experiments were run at 25° C. at pH 7.4 using HBS-EP+ buffer using Biacore 8K control software and evaluated using Biacore Insight Evaluation software. Curves were fit with the 1:1 kinetic fit inherent to the software, utilising a local Rmax and local drift setting.
(§3) Anti-cotinine antibody was tested for binding to ARMs compounds of Formula (I) of the invention in the above assay in or more experimental runs and the results are shown in Table 6 below. Affinity is reported as a pKd value. The pKd value is the negative log of the Kd value, wherein the Kd value is the dissociation constant measured in molar (M) as noted above. For compounds tested in more than one experimental run, the pKd value is reported as an average.

[2] = test system: anti-cotinine antibody (SEQ ID NO: 11/12, rabbit version); experiment: SPR binding of anti-cotinine antibody to ARM compounds, Biacore 8k, 25° C., rabbit antibody (Example 202); details: time reference 3 (association 360 s, dissociation 600 s, 30 μl/min)
Text: as §1, §2, §3

[3] = time reference 1 (association 600 s, dissociation 1200 s, 20 μl/min)

Question: `CN1C(=O)C[C@H](C(=O)NCCOCCOCCOCCOCCOCCOCCOCCOCCC(=O)N[C@@H]2C[C@H](NC(C)(C)C)CC[C@@H]2N2CC[C@H](Nc3ncnc4ccc(C(F)(F)F)cc34)C2=O)[C@H]1c1cccnc1` [Example 36, (2S,3S)-N-(27-(((1R,2S,5R)-5-(tert-Butylamino)-2-((S)-2-oxo-3-((6-(trifluoromethyl)quinazolin-4-yl)amino)pyrrolidin-1-yl)cyclohexyl)amino)-27-oxo-3,6,9,12,15,18,21,24-octaoxaheptacosyl)-1-methyl-5-oxo-2-(pyridin-3-yl)pyrrolidine-3-carboxamide] was tested. Which “CD8+ T cell expansion (percentage of CD8+ T cells divided)” value (CCR2+ cells; donor samples with robust CCR2+ cell depletion, with anti-cotinine antibody) did it give?
Answer: Its value is “observed in 2 of 3 donor samples”.

Question: And the “depletion of CCR2+ cells (flow cytometry)” value (CCR2+ cells; in the presence of anti-cotinine antibody)?
Answer: The value was “depletion of CCR2+ cells”.

Question: And the “percentage of CD8+ T cells” value (MC38 tumor)?
Answer: Its value is “increased”.

Question: What about the “percentage of mMDSCs” value (MC38 tumor) of the same molecule?
Answer: Its value is “decreased”.

Question: What about the “tumor growth inhibition of the antibody/ARM compound” value (MC38 tumors) of the same molecule?
Answer: The value was “dependent upon the presence of CD4 and CD8 T cells”.

Question: And the ka [1, 3]?
Answer: The ka was 124000 M⁻¹ s⁻¹.

Question: And the kd [1, 3]?
Answer: The kd was 0.000751 s⁻¹.

Question: And the pKd ([1]; time reference 3 (association 360 s, dissociation 600 s, 30 μl/min))?
Answer: Its pKd is “kd outside”.

Question: And the ka [2]?
Answer: Its ka is 3.17e+06 M⁻¹ s⁻¹.

Question: What about the kd [2] of the same molecule?
Answer: The kd was 0.000365 s⁻¹.

Question: What about the pKd [2] of the same molecule?
Answer: The pKd was 9.94.
